Laboratory results taken from PMC6428247, “Potent inhibitors of equine steroid isomerase EcaGST A3-3” (PLoS ONE, 2019).
Counter-ions that a name gives are not always drawn.

Protein sequences, listed by entry. Tags and fused reporters are not part of them.
UniProt M9ZT87, entry or part of it: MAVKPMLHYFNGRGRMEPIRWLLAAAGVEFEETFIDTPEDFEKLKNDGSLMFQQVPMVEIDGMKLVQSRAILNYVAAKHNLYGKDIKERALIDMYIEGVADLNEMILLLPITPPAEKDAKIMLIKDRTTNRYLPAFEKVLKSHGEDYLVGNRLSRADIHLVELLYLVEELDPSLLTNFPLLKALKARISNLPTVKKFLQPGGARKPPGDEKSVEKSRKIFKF

Target: EcaGST A3-3 (Equus caballus, UniProt M9ZT87)
Assay: Inhibition of EcaGST A3-3 activity, GSH conjugation with CDNB
Format: biochemical, Equus ferus caballus
Details: pH 6.5, read-out: Inhibition (%) of EcaGST A3-3
Method: The final solvent concentration in the reaction system was kept at 5% (v/v) as a maximum.
The conjugation of GSH with the electrophilic substrate CDNB was used as a biochemical assay for general activity measurements. Screening of the US Drug library for inhibition was done in triplicates in 96-well plates in a Thermo Scientific Multiskan GO spectrophotometer. The conjugation activity at 30°C was monitored at 340 nm for 1 min in 0.1 M sodium phosphate buffer at pH 6.5 and 10 μM inhibitor concentration in a final volume of 300 μL. Initial concentrations of GSH and CDNB were 1 mM.
Assay conditions for inhibition measurements of enzyme activity with CDNB were the following: EcaGST A3-3 15 nM, initial concentrations of GSH and CDNB 1 mM, inhibitor concentrations varying from 0.029 μM to 15 μM, in 100 mM Na2HPO4/NaH2PO4 at pH 6.5.
The reactions were followed spectrophotometrically for 1 min at 30°C using a Shimadzu UV-2501 PC spectrophotometer (Shimadzu Inc.). All experiments included triplicate measurements in each data point.
The equation for competitive inhibition fitted by non-linear regression was v=Vmax[S]/KM(1+[I]/Ki)+[S] where [S] is the substrate concentrations and [I] is the inhibitor concentration.

Oc1ccc2c3c1O[C@H]1[C@@H](O)CC[C@@]4(O)[C@@H](C2)N(CC2CCC2)CC[C@]314 [Nalbuphine hydrochloride]
inhibition at 10 µM: 35 ± 11%
